One assay deals with CRX (UniProt O43186). As to the kind of experiment: DAPPL (digital affinity profiling via proximity ligation, sequencing). The conditions noted are these: 10 mM Tris-HCl pH 7.5, 50 mM NaCl, 1 mM DTT, 4% glycerol, room temperature, 30 min; GST-TFs on glutathione beads, 16-mer random dsDNA library, 0.1% …; high values mean tight binding; double strand, one strand shown; scale: fold enrichment (6-mer frequency, TF over GST control).

Protein sequences, listed by entry. Tags and fused reporters are not part of them. Lines headed by an entry give the natural chain unless they say otherwise; changes in a name come on top.
UniProt O43186: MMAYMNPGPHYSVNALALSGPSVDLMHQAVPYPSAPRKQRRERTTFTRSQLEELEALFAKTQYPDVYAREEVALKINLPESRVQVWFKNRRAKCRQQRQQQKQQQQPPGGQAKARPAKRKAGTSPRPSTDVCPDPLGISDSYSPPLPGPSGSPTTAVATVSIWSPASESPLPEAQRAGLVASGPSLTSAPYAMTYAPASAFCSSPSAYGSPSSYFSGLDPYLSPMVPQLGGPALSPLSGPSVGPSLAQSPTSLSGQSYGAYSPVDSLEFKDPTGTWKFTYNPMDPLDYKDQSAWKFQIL

Another assay concerns the target T1, ELF5 (UniProt Q9UKW6-2).
T1 sequence: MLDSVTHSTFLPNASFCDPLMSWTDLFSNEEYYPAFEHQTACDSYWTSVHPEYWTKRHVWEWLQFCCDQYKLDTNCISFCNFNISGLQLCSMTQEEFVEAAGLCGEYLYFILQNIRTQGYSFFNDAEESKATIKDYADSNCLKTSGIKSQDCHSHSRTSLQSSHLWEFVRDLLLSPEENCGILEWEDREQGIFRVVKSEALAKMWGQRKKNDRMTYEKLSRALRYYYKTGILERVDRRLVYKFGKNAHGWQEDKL
The description is as above. The conditions noted are these: 10 mM Tris-HCl pH 7.5, 50 mM NaCl, 1 mM DTT, 4% glycerol, room temperature, 30 min; GST-TFs on glutathione beads, 16-mer random dsDNA library, 0.1% …; high values mean tight binding; double strand, one strand shown; scale: fold enrichment (6-mer frequency, TF over GST control).

Data on 120 sequences can be found in article PMC7862700.

Only a part is listed here, and it is no random draw. At the low end of the ranking, values are background and their order means little.

ACTGAC gave a binding signal in the assay with CRX of 0.825.
Same read-out and setting: for GCTATG the value was 0.944; for GTAGCA, 0.795; for GGTTTG, 0.866.
Still for that read-out and setting: in the case of TACGAC it was 1.25.
Same read-out and setting: for CCGCCG the value was 0.829.
In the assay with CRX, TTACGT had a binding signal of 1.74.
On the same count and under the same terms, in the case of TCGTCC it was 0.774; in that of ACGAAT, 1.21.
The same measure, in the same setting: for CGGAAC the value was 0.457.
On the same count and under the same terms, in the case of TTATGC it was 2.28.
Turning to CACCTC, the binding signal with CRX is 0.798.
Still for that read-out and setting: in the case of TCCGGT it was 1.04; in that of CCCCGT, 0.961; in that of TTCATT, 1.15.
On to TAATCA, for which, in the assay with CRX, the binding signal was found to be 2.51.
The same measure, in the same setting: for CTTCGT the value was 1.22; for CAAACC, 0.899; for ACTTGC, 1.12.
Same read-out and setting: for AAGTAG the value was 1.2; for GCTCAT, 1.35; for GTTCAC, 0.821.
On the same count and under the same terms, in the case of CGCTAT it was 0.942; in that of TCAAAC, 1.14.
Sequence CATCAC displayed a binding signal with CRX of 0.86.
Same read-out and setting: in the case of GTTAAG it was 1.87; in that of CCGAAC, 1.17.
The same measure, in the same setting: in the case of ACAGCC it was 0.803.
On the same count and under the same terms, for GCTGCC the value was 0.843.
GAAGAA yielded a binding signal in the assay with CRX of 0.936.
On to TAAGTT, for which, in the assay with CRX, the binding signal was 1.94.
On the same count and under the same terms, in the case of CATGCC it was 0.852.
Sequence TATTAG had a binding signal with CRX of 1.94.
The same measure, in the same setting: in the case of CCGCCA it was 1.02.
In the assay with CRX, CAGCCC had a binding signal of 0.879.
Turning to AGCATT, the binding signal in the assay with CRX came to 1.32.
The same measure, in the same setting: for CTTAAG the value was 2.69; for TGTGCC, 0.817; for AACACG, 0.928.
TGGCCA: the figures for the binding signal with CRX and with ELF5 were 0.856 and 0.984, respectively.
For CAGACT, in that order: 0.969 and 0.941.
For GTCTTG, the binding signal with CRX worked out at 0.846; with ELF5 it was 0.997.
For ACCAAA, in that order: 0.955 and 0.999.
GGTAAA showed a binding signal with CRX of 1.07.
In the case of AATCAG, the binding signal with CRX was 1.42; with ELF5 it was 1.04.
The corresponding values for GGCAGC are 0.75 and 0.901.
For GTGCCC, in that order: 0.649 and 0.829.
The corresponding values for AACCCT are 1.39 and 1.28.
As for CTCATC, the binding signal in the assay with CRX was 1.32; in the assay with ELF5, 1.44.
Take TATTTA: the binding signal with CRX worked out at 2.47.
Consider GTGACC, for which the binding signal with CRX came to 0.829.
Still for that read-out and setting: for CCTTAG the value was 1.28.
Turning to GCGCCG, the binding signal came to 0.723 in the assay with CRX and 0.879 with ELF5.
With TGTACC, the binding signal with CRX turned out to be 0.919; with ELF5 it was 1.27.
AATTTT gave a binding signal with CRX of 1.29.
Turning to GACTCC, the binding signal with CRX is 1.02.
In the case of TATACG, the binding signal with CRX was 1.39; with ELF5, 1.35.
Consider CACCGG, for which the binding signal with CRX amounted to 0.614.
CTCACC: the values for the binding signal with CRX and with ELF5 were 0.966 and 1.15, respectively.
Sequence ATGCCT gave a binding signal in the assay with CRX of 1.28.
For the sequence CACTCA, the binding signal with CRX came to 0.945; in the assay with ELF5 it was 1.12.
The corresponding values for GCCGCA are 0.805 and 0.923.
On to ATTCTT, for which, in the assay with CRX, the binding signal was found to be 1.77.
TTGCTT: the binding signal with CRX was 1.24; with ELF5, 1.29.
For CTGACG, in that order: 0.823 and 1.09.
The corresponding values for CTACAA are 1.04 and 1.16.
The sequence TGCATC returned a binding signal with CRX of 0.947.
In the assay with CRX, CTACGG returned a binding signal of 1.08.
With AGCTCG, the figures for the binding signal in the assay with CRX and with ELF5 were 0.979 and 0.95, respectively.
TATGCC: the binding signal in the assay with CRX was 1.18.
Still for that read-out and setting: in the case of CTAGAT it was 1.83.
With GCCGCC, the binding signal in the assay with CRX is 0.73; in the assay with ELF5, 1.01.
The corresponding values for TCCACC are 1.04 and 1.19.
The corresponding values for TTAGGC are 2.06 and 0.965.
The corresponding values for TAGACA are 1.03 and 0.955.
Regarding CGGGCT, the binding signal with CRX was 0.827; with ELF5, 0.92.
GCTGGC gave a binding signal in the assay with CRX of 0.843.
In the assay with CRX, GTACAA gave a binding signal of 0.847.
Take CAAATC: the binding signal in the assay with CRX was determined as 1.69; with ELF5 it was 1.08.
As for TCACTC, the binding signal stood at 1.05 in the assay with CRX and 1.1 in the assay with ELF5.
The corresponding values for ACCTTT are 1.3 and 1.45.
On to AACGCA, for which the binding signal with CRX came out at 0.877; in the assay with ELF5, 1.04.
Regarding CATACA, the binding signal with CRX was found to be 0.804; in the assay with ELF5, 0.964.
The corresponding values for GAAGCC are 0.795 and 1.07.
The corresponding values for CTCGCG are 1.3 and 1.42.
For GCTTGG, in that order: 0.969 and 0.965.
CCCCAC: the figures for the binding signal in the assay with CRX and in the assay with ELF5 were 0.98 and 1.19, respectively.
The corresponding values for ACGGAA are 0.763 and 2.24.
For TCAATG, in that order: 1.02 and 0.971.
On to ATCCTT, for which the binding signal was found to be 2.37 in the assay with CRX and 2.26 with ELF5.
The corresponding values for CTCAGC are 1.31 and 1.08.
As to TTGAGG, the binding signal with CRX came to 1.02; in the assay with ELF5 it was 1.11.
The corresponding values for TACAGC are 1.07 and 1.07.
The corresponding values for GTTGCC are 0.702 and 0.889.
For CATAAC, in that order: 0.98 and 1.15.
Regarding AACTCT, the binding signal came out at 1.37 with CRX and 1.35 in the assay with ELF5.
The corresponding values for CAAGCA are 0.975 and 1.11.
The corresponding values for AGTGCC are 0.705 and 0.962.
For ATTGTC, in that order: 1.06 and 1.2.
On to CACCGA, for which the binding signal with CRX turned out to be 0.879; with ELF5 it was 1.04.
The corresponding values for CACACG are 0.897 and 1.04.
The corresponding values for CGATGT are 0.896 and 0.994.
The corresponding values for AAGCTG are 1.59 and 1.11.
For TTCAAT, the binding signal with CRX turned out to be 1.38; with ELF5, 1.26.
The corresponding values for GTAATC are 3.14 and 1.18.
For GTTCGC, in that order: 0.906 and 1.01.
For TGGCTC, in that order: 1.3 and 1.21.
Turning to AAGTTG, the binding signal with CRX is 0.978; in the assay with ELF5 it was 1.17.
For TGTCCG, in that order: 0.754 and 1.62.
The corresponding values for ACCCAC are 0.875 and 1.19.
The corresponding values for GAAACG are 0.733 and 1.29.
For the sequence CTGGAA, the binding signal with CRX came to 1.89; with ELF5 it was 1.34.
The corresponding values for CTGGCA are 1.19 and 1.19.
With CGCACT, the binding signal in the assay with CRX worked out at 0.946; in the assay with ELF5, 1.23.
For TCAGCA, the results for the binding signal with CRX and in the assay with ELF5 were 1.01 and 0.95, respectively.
Regarding ACGCGC, the results for the binding signal in the assay with CRX and with ELF5 were 0.867 and 0.93, respectively.
The corresponding values for TGCCGG are 0.626 and 1.09.
For GTACCA, in that order: 0.783 and 0.965.
The corresponding values for ACAAAC are 0.847 and 1.12.
Turning to CGCCAA, the binding signal with CRX amounted to 0.9; in the assay with ELF5, 0.988.
